## Drug screen on melanoma cell lines: apoptosis marker

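The test systems are human melanoma cell lines, treated with two drugs together for 72 h and then stained and imaged. The read-out is the fraction of cleaved-PARP-positive nuclei, in % of that fraction in the DMSO control; 200 means twice the control level of this apoptosis marker. Every drug was used at one fixed concentration, the higher of two screened. These are primary screening values without error estimates. Basal and induced levels differ widely between cell lines.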 Only some of the drugs and lines screened are listed, without regard to their results. An entry leaves out what has no value listed here.

First drug in all entries: GW9662, 10000 nM, O=C(Nc1ccccc1)c1cc([N+](=O)[O-])ccc1Cl

{"partner": "CC(=O)O[C@@]12CO[C@@H]1C[C@H](O)[C@@]1(C)C(=O)[C@H](O)C3=C(C)[C@@H](OC(=O)[C@H](O)[C@@H](NC(=O)OC(C)(C)C)c4ccccc4)C[C@@](O)([C@@H](OC(=O)c4ccccc4)[C@H]21)C3(C)C at 0.5 nM", "A375": 181, "RVH-421": 252, "SK-MEL-2": 744, "COLO 800": 408, "COLO 792": 639, "WM115": 546}
{"partner": "C[As](C)SC[C@H](NC(=O)CC[C@H](N)C(=O)O)C(=O)NCC(=O)O at 2000 nM", "A375": 83.7, "RVH-421": 70.1, "SK-MEL-2": 159, "COLO 800": 117, "COLO 792": 59.2, "WM115": 231}
{"partner": "O=C(Nc1cc(C(F)(F)F)cc(C(F)(F)F)c1)c1cc(Cl)ccc1O at 80 nM", "A375": 67.3, "RVH-421": 105, "SK-MEL-2": 66.1, "COLO 800": 128, "COLO 792": 51.1, "WM115": 127}
{"partner": "Oc1cc(-c2nc(-c3ccccc3)[nH]c2-c2ccncc2)ccc1Cl at 1000 nM", "A375": 113, "RVH-421": 91.8, "SK-MEL-2": 957, "COLO 800": 46.9, "COLO 792": 87.9, "WM115": 467}
{"partner": "COc1ccc(-c2ccc3c(N4CCOCC4)nc(N4C[C@@H](C)O[C@@H](C)C4)nc3n2)cc1CO at 100 nM", "A375": 37.5, "RVH-421": 127, "COLO 800": 154, "COLO 792": 171, "WM115": 73.6}
{"partner": "C[C@]1(O)C[C@@H](c2nc(-c3ccc4ccc(-c5ccccc5)nc4c3)c3c(N)nccn32)C1 at 2000 nM", "A375": 21.2, "RVH-421": 296, "SK-MEL-2": 160, "COLO 800": 175, "COLO 792": 51.5, "WM115": 60.9}
{"partner": "C[C@@H](Oc1cc(-c2cnn(C3CCNCC3)c2)cnc1N)c1c(Cl)ccc(F)c1Cl at 1000 nM", "A375": 43.1, "RVH-421": 89.6, "SK-MEL-2": 36.0, "COLO 800": 194, "COLO 792": 60.8, "WM115": 162}
{"partner": "CCCCCCCCCCCC1=C(O)C(=O)C=C(O)C1=O at 6000 nM", "A375": 37.8, "RVH-421": 146, "SK-MEL-2": 136, "COLO 800": 87.1, "COLO 792": 223, "WM115": 86.4}
{"partner": "CCN(CC)CCNC(=O)c1c(C)[nH]c(/C=C2\\C(=O)Nc3ccc(F)cc32)c1C at 2000 nM", "A375": 91.5, "RVH-421": 211, "COLO 800": 170, "COLO 792": 87.7, "WM115": 92.5}
{"partner": "Nc1ccn([C@@H]2O[C@H](CO)[C@@H](O)C2(F)F)c(=O)n1 at 2 nM", "A375": 71.7, "RVH-421": 147, "COLO 800": 500, "COLO 792": 51.8, "WM115": 81.7}
{"partner": "NC(=O)c1ccc(N(C(N)=O)c2c(F)cccc2F)nc1-c1ccc(F)cc1F at 2000 nM", "A375": 190, "RVH-421": 187, "SK-MEL-2": 185, "COLO 800": 159, "COLO 792": 98.9, "WM115": 92.8}
{"partner": "CC(=O)c1c(C)c2cnc(Nc3ccc(N4CCNCC4)cn3)nc2n(C2CCCC2)c1=O at 200 nM", "A375": 106, "RVH-421": 365, "SK-MEL-2": 93.7, "COLO 800": 156, "COLO 792": 216, "WM115": 207}
{"partner": "CC(C)C[C@H](NC(=O)[C@H](Cc1ccccc1)NC(=O)c1cnccn1)B(O)O at 5 nM", "A375": 84.8, "RVH-421": 214, "SK-MEL-2": 537, "COLO 800": 208, "COLO 792": 271, "WM115": 798}
{"partner": "O=S(=O)(c1ccccc1)N(CC(F)(F)F)c1ccc(C(O)(C(F)(F)F)C(F)(F)F)cc1 at 7000 nM", "A375": 74.2, "RVH-421": 81.3, "COLO 800": 123, "COLO 792": 67.7, "WM115": 159}
{"partner": "O=C(Oc1ccc([N+](=O)[O-])cc1)N1CCC(C(O)(c2ccc3c(c2)OCO3)c2ccc3c(c2)OCO3)CC1 at 5000 nM", "A375": 30.6, "RVH-421": 43.5, "SK-MEL-2": 114, "COLO 800": 174, "COLO 792": 73.2, "WM115": 114}
{"partner": "COc1cc(N2CCC(N3CCN(C)CC3)CC2)ccc1Nc1ncc(Cl)c(Nc2ccccc2S(=O)(=O)C(C)C)n1 at 400 nM", "A375": 48.4, "RVH-421": 216, "SK-MEL-2": 183, "COLO 800": 375, "COLO 792": 137, "WM115": 157}
{"partner": "C#Cc1cccc(Nc2ncnc3cc(OCCOC)c(OCCOC)cc23)c1 at 4000 nM", "A375": 154, "RVH-421": 66.8, "SK-MEL-2": 181, "COLO 800": 265, "COLO 792": 161, "WM115": 307}
{"partner": "N#Cc1c(O)c2c(-c3ccc(-c4ccccc4O)cc3)csc2[nH]c1=O at 10000 nM", "A375": 58.3, "RVH-421": 133, "SK-MEL-2": 94.1, "COLO 800": 47.4, "COLO 792": 63.8, "WM115": 190}
{"partner": "O=c1cc(-c2cccc3c2Sc2ccccc2S3)oc(N2CCOCC2)c1 at 5000 nM", "A375": 18.8, "RVH-421": 154, "SK-MEL-2": 164, "COLO 800": 88.9, "COLO 792": 96.5, "WM115": 122}
{"partner": "Cc1cc(Nc2cc(N3CCN(C)CC3)nc(Sc3ccc(NC(=O)C4CC4)cc3)n2)n[nH]1 at 30 nM", "A375": 96.1, "RVH-421": 264, "SK-MEL-2": 44.2, "COLO 800": 525, "COLO 792": 26.8, "WM115": 196}
{"partner": "Cc1ccc(NC(=O)c2cccc(N(C)C)c2)cc1NC(=O)c1ccc(O)cc1 at 10000 nM", "A375": 46.1, "RVH-421": 145, "SK-MEL-2": 112, "COLO 800": 62.0, "COLO 792": 80.8, "WM115": 108}
{"partner": "O=C(O)c1ccc2c(c1)nc(Nc1cccc(Cl)c1)c1ccncc12 at 2000 nM", "A375": 158, "RVH-421": 125, "SK-MEL-2": 308, "COLO 800": 209, "COLO 792": 100, "WM115": 201}
{"partner": "NCC(=O)Nc1ccc(-n2nc(C(F)(F)F)cc2-c2ccc3c(ccc4ccccc43)c2)cc1 at 5000 nM", "A375": 180, "RVH-421": 214, "SK-MEL-2": 1210, "COLO 800": 130, "COLO 792": 173, "WM115": 117}
{"partner": "CN(C)S(=O)(=O)c1ccc2c(c1)/C(=C/c1cc3c([nH]1)CCCC3)C(=O)N2 at 2000 nM", "A375": 59.6, "RVH-421": 73.1, "SK-MEL-2": 195, "COLO 800": 53.7, "COLO 792": 91.0, "WM115": 109}
{"partner": "Cn1cnc2c(F)c(Nc3ccc(Br)cc3Cl)c(C(=O)NOCCO)cc21 at 75 nM", "A375": 109, "RVH-421": 90.9, "SK-MEL-2": 432, "COLO 800": 148, "COLO 792": 122, "WM115": 241}
{"partner": "Cn1c(Nc2ccc(C(F)(F)F)cc2)nc2cc(Oc3ccnc(-c4ncc(C(F)(F)F)[nH]4)c3)ccc21 at 400 nM", "A375": 178, "RVH-421": 120, "SK-MEL-2": 569, "COLO 800": 192, "COLO 792": 760, "WM115": 595}
{"partner": "Cc1cc(SCc2sc(-c3ccc(C(F)(F)F)c(F)c3)nc2C)ccc1OCC(=O)O at 10000 nM", "A375": 47.0, "RVH-421": 35.0, "SK-MEL-2": 210, "COLO 800": 78.8, "COLO 792": 85.6, "WM115": 107}

Some entries from above, unchanged:

Partner,A375,RVH-421,SK-MEL-2,COLO 800,COLO 792,WM115
O=C(Oc1ccc([N+](=O)[O-])cc1)N1CCC(C(O)(c2ccc3c(c2)OCO3)c2ccc3c(c2)OCO3)CC1 at 5000 nM,30.6,43.5,114,174,73.2,114
COc1cc(N2CCC(N3CCN(C)CC3)CC2)ccc1Nc1ncc(Cl)c(Nc2ccccc2S(=O)(=O)C(C)C)n1 at 400 nM,48.4,216,183,375,137,157
C[As](C)SC[C@H](NC(=O)CC[C@H](N)C(=O)O)C(=O)NCC(=O)O at 2000 nM,83.7,70.1,159,117,59.2,231

Source: doi:10.1371/journal.pone.0140310, primary screening data, rounded.